Holding throughout (assay): affinity purification with mass spectrometry
In experiment [1] the target is DacA-FLAG (diadenylate cyclase DacA with C-terminal FLAG tag) (Streptococcus mutans).
Experiment [2] shares this target. This is another data set of the same source.
Experiment [3] has the same target. This is another data set of the same source.

The values below come from doi:10.64898/2025.12.11.693769.

Where two headings read alike, the source gives them in different places. Results are given in words; binding and its absence hold for the method and conditions named. In cells and extracts the contact can be indirect. These calls come from enrichment with a bait or labelling near it, and not all partners need be listed.

B1: SMU_723 (protein, UniProt Q8DV01 1-893)
chain: MFKKQKRDSFYVQDEKTVLSGLESSKKGLTSTQAKQRLADYGYNELEEDEKRTILAKFIDQFKDLMIIILLVAAALSVITEGMGGLTDAIIILVVVVLNAAFGVYQEGQAEAAIEALKSMSSPHARVRRDGHVTEIDSKELVPGDVVLLEAGDVVPADMRLLEAASLKIEEAALTGESVPVEKSVTVAIASDAGIGDRLNMAYQNSNVTYGRGMGVVTNTGMYTEVGHIAGMLANADETDTPLKQSLDNLSKVLTYVIIIIAIITCLVGIFVRHEEPLEGLMVAVALAVAAIPEGLPAIVTVVLSLGTKTLAKRQSIVRKLPAVETLGSTEIIASDKTGTLTMNQMTVEKVYYNGRLVDANDDIDVNNMALRVMNFANDSKVDANGKLIGDPTETALVQYGFDHNFDIREVLKAELRVAELPFDSDRKLMSTIHKLDGEKYLIAVKGAPDQLLKRITQIEIDGSIRPITEDDKKAILDMNKSLAKQALRVLMIAYKYESEIPKLETAVVENDLIFAGLVGMIDPERPEAAEAVHVAKEAGIRPIMITGDHQDTAEAIAKRLGIIDDDGIDHVFTGAELNELSDEEFQKVFKQYSVYARVSPEHKVRIVKAWQNDGKIVAMTGDGVNDAPSLKTADIGIGMGITGTEVSKGASDMVLADDNFATIIVAVEEGRKVFSNIQKSIQYLLSANMAEVFTIFFATLFGWDVLQPVHLLWINLVTDTLPAIALGVEPAEPGVMTHKPRGRKSSFFSGGVMGAIIYQGILQTLLVLGVYGWAVFFPEHATRTEIHADALTMAFATLGLIQLVHAYNVKSVYQSIFKVGFFKNKTFNWALPTALIIMLATIVIPGFNRFFHVSHLSVTQWCVVVGGSLAMFVIVEIVKAIQRVLGQDQKAI
Turning to B1, the binding result in experiment [1] and in experiment [2] was “binds” throughout.

B2: FtsZ (protein, UniProt Q8DVD9 1-434)
chain: MAFSFDAASVQGAVIKVIGVGGGGGNAINRMIDEGVAGVEFIAANTDIQALSSSKAETVIQLGPKLTRGLGAGGQPEIGRKAAEESEEALTEALTGADMVFITAGMGGGSGTGAAPVIARIAKGLGSLTVAVVTRPFGFEGSKRGNYAIEGINELRDEVDTLLIISNNNLLEIVDKKTPLLEALSEADNVLRQGVQGITDLITSPGLINLDFADVKTVMASKGNALMGIGIGTGEERVVEAARKAIYSPLLETTIDGAEDVIVNVTGGLDMTLTEAEEASEIVNQAAGHGVNIWLGTSIDDSMKDEIRVTVVATGVRPDKADQVSGIRRQASSYTQPRAQQQAPSSNSAQPNFERRQNFDFDLNESPEMPAAEPQQTQSSSEPQQSAFGDWNLRRENIARPTEGEIDSQLKMSSFSADSDDDDELETPPFFKNR
For the molecule B2, the binding entry in experiment [1] is “binds”.

B3: PttB (protein, UniProt I6L905 1-655)
chain: MGKFEKDAKVLLDAIGGKENVSAVTHCATRMRFVLNDESKADVKTIEAIPAVKGTFTNAGQFQIIIGNDVPLFYNDFTAVSGIEGVSKETAKSAAKSHQNPIQRVMTLLAEIFTPIIPAIIVGGLILGFRNVIDQVQWGFLDGQTIAQHSQFWSGISSFLWLPGEAIFQFLPVGIVWSVSRKMGTSQILGIVLGICLVSPQLLNAYNVASTPAAEIAKKWVWDFGFFTVRRIGYQGQVIPALLAGLSLSYLEIFWRKKIPEVVSMIFVPFLSLIPALILAHTVLGPIGWTIGQWISTIVYAGLTGPVKWLFGAIFGALYAPFVITGLHHMTNAIDTQLVADTGGTGLWPMIALSNIAQGSAVFAYYLMNRHEEREAQVSLPATISAYLGVTEPALFGVNIKYVYPLVAGMIGSSIAGFLSVTFNVTANAIGIGGLPGILSIKVKYMLPFFIIMLVAIAVPMVLTVFFRRINFLTKSEDEAHQEKTETAEISASEKTNEPAVGTTFEIKSPLKGQVKPLSEAVDPVFAQGVMGQGVLIDPSEGLLTSPVNGVVSVLFPTKHALGLVTDQGLELLIHIGMDTVNLEGKGFETYVKQGDTIKVGDKLIRFDIDAIHQAGYTTETPVIVTNQNDYQPDVVGSLPREIERGEVLLTASKI
As for B3, the binding result in experiment [1] and in experiment [3] was “binds” throughout.

B4: LivG (protein, UniProt Q8DSU3 1-254)
chain: MALLDVKNLTKNFGGLTAVGDVTLELNEGELVGLIGPNGAGKTTLFNLLTGVYEPSEGSVELDGTLLNGKTPYKIASLGLSRTFQNIRLFKNMTVIENVLVGMENTRNPHLFSSFLRLPSFYSNETDLQEKAIELLKIFNLDDKADTLAKNLPYGQQRRLEIVRALATKPKILFLDEPAAGMNPQETAELTELIRQIKEEFSITIMLIEHDMSLVMDVTERIYVLEYGRLIAQGTPEEIKHNKRVIEAYLGGEA
As to B4, the binding result in experiment [1] is given as “binds”.

B5: GuaB (enzyme, UniProt Q8DRR2 1-493)
chain: MSNWDTKFLKKGYTFDDVLLIPAESHVLPNEVSMQTKLAKNLTLNIPIITAAMDTVTDSKMAIAIARAGGLGVVHKNMSIKEQAEEVRKVKRSENGVIIDPFFLTPEHKVSEAEELMQRYRISGVPVVETLDNRKLIGIITNRDMRFISDYETPISEHMTSEKLVTAPVGTDLETAERILHEHRIEKLPLIDEKGRLSGLITIKDIEKVIEFPNAAKDEFGRLLVAGAVGVTSDTFERAEALFEAGADAIVIDTAHGHSAGVLRKIAEIRAHFPDRTLIAGNIATAEGARALYEAGVDVVKVGIGPGSICTTRVVAGVGVPQITAIYDAASIAREYGRTIIADGGIKYSGDIVKALAAGGNAVMLGSMFAGTDEAPGETEIFQGRKFKTYRGMGSIAAMKKGSSDRYFQGSVNEANKLVPEGIEGRVAYKGAAADIVFQMLGGIRSGMGYVGAANLKELHENAQFIEMSGAGLIESHPHDVQITNEAPNYSVQ
For the molecule B5, in experiment [1], the binding entry is recorded as “binds”.

B6: GroEL (protein, UniProt Q8CWW6 1-542)
chain: MAKDIKFSADARSSMVRGVDILADTVKVTLGPKGRNVVLEKSFGSPLITNDGVTIAKEIELEDHFENMGAKLVSEVASKTNDIAGDGTTTATVLTQAIVREGLKNVTAGANPIGIRRGIETAVATAVDELKAIAQPVSGKEAIAQVAAVSSRSEKVGEYVSEAMEKVGNDGVITIEESRGMETELDVVEGMQFDRGYLSQYMVTDNEKMVADLENPYLLITDKKISNIQDVLPLLEEVLKTNRPLLIIADDVDGEALPTLVLNKIRGTFNVVAVKAPGFGDRRKAMLEDIAVLTGGTVITEDLGLELKDTTIDALGQAARVTVDKDSTVIVEGSGGKEAVANRVNLIKSQIETATSDFDREKLQERLAKLSGGVAVIKVGAATETELKEMKLRIEDALNATRAAVEEGIVAGGGTALINVIEKVAALDLTDDAATGRNLVLRALEEPVRQIAKNAGYEGSVIIDKLKNSSAGTGFNAANGEWVDMIDAGIIDPVKVTRSALQNAASVASLILTTEAVVADHPAPEAPAAAPAMDPSMMGGMM
As for B6, the binding entry in experiment [1] is “binds”.

B7: LivF (protein, UniProt Q8DSU4 1-236)
chain: MAMLKVENLSVHYGVIQAVKDVSFDVNEGEVVSLIGANGAGKTSILRTISGLVRPSSGEINFLGNDIQKAATRKIVASGLSQVPEGRHVFPGLTVLENLEMGAFLSNNREENLARLKRVFERFPRLEERKNQDAATLSGGEQQMLAMGRALMSQPKLLLLDEPSMGLAPIFIQEIFDIIQDIQKQGTTVLLIEQNAKKALSIADRGYVLETGKIVLSGTGKELLASDEVQKAYLGG
B7: in experiment [1], the binding entry is given as “binds”.

B8: GlmM (enzyme, UniProt Q8DTC6 1-449)
chain: MGKYFGTDGVRGEANVELTPELAFKLGRFGGYVLSQHEPDRPRVFVARDTRISGELLESALVAGLLSVGIEVYKLGVLATPGVSYLVRTEQASAGVMISASHNPALDNGIKFFGGDGFKLADEQEAEIEALLDAKEDDLPRPSAQGLGMVVDYPEGLRKYEKFLVSTGSDLEGMKIAIDAANGAASYSARQVFLDLNADITVIGEEPDGLNINDGVGSTHPEQLQNLVKGSDFVIGLAFDGDSDRLIAVDENGEIVDGDKIMYIIGKYLSEKGRLSKNTIVTTVMSNLGFHKALDRENINKKITAVGDRYVVEEMRRSGYNLGGEQSGHVIIMDYNTTGDGQLTAIQLTKVMKETGKTLSELANEVTIYPQKLVNIYVKNDMKNKAMEVPMIAQIIEKMEAEMAGNGRILVRPSGTEPLLRVMAEAPSTEEVNYYVDTIAKVVKTEIGI
For the molecule B8, in experiment [2], the binding entry is recorded as “binds”.

B9: GapC (enzyme, UniProt Q8DVV3 1-337)
chain: MVVKVGINGFGRIGRLAFRRIQNVEGVEVTRINDLTDPNMLAHLLKYDSTQGRFDGNVEVKEGGFEVNGKFVKVSAERDPEQIDWAADGVEIVLEATGFFASKAAAEKHLHANGGAKKVVITAPGGNDIKTIVFNTNHDVLDGTETVISGASCTTNCLAPMAKALHDNFSIKEGLMTTIHAYTGDQMVLDGPHRKGDLRRARAAAANIVPNSTGAAKAIGLVIPELNGKLDGAAQRVPVPTGSVTELVAVLDKKVTVDEVNAAMKAAANESYGYTEDPIVSSDIVGMSFGSLFDATQTKVLDVDGKQLVKVVSWYDNEMSYTSQLVRTLEYFAKIAK
B9: the binding result in experiment [1] is recorded as “binds”.

B10: Ftf (enzyme, UniProt P11701 37-795)
chain: DEANSTQVSSELAERSQVQENTTASSSAAENQDKTEVKETPSTNPAAATVENTDQTTKVITDNAAVESKASKTKDQAATVTKTSASTPEVGQTNEKAKATKEADITTPKNTIDEYGLTEQARKIATEAGINLSSLTQKQVEALNKVKLTSDAQTGHQMTYQEFDKIAQTLIAQDERYAIPYFNAKAIKNMKAATTRDAQTGQIADLDVWDSWPVQDAKTGEVINWNGYQLVVAMMGIPNTNDNHIYLLYNKYGDNNFDHWKNAGSIFGYNETPLTQEWSGSATVNEDGSLQLFYTKVDTSDKNSNNQRLATATVNLGFDDQDVRILSVENDKVLTPEGGDGYHYQSYQQWRSTFTGADNIAMRDPHVIEDENGDRYLVFEASTGTENYQGEDQIYNFTNYGGSSAYNVKSLFRFLDDQDMYNRASWANAAIGILKLKGDKKTPEVDQFYTPLLSSTMVSDELERPNVVKLGDKYYLFTASRLNHGSNNDAWNKANEVVGDNVVMLGYVSDQLTNGYKPLNNSGVVLTASVPADWRTATYSYYAVPVAGSSDTLLMTAYMTNRNEVAGKGKNSTWAPSFLIQVLPDGTTKVLAEMTQQGDWIWDESSRTTDTVGTLDTAYLPGENDGYIDWNVIGGYGLKPHTPGQYQPTVPSTPIHTDDIISFEVSFDGHLVIKPVKVNNDSAGRIDQSRNSGGSLNVAFNVYAGGNISVKPSQKSINNTKETKKAHHVSTEKKQKKGNSFFAALLALFSAFCVSIGFK
Turning to B10, in experiment [1], the binding result is on record as “binds”.
